Measured values from PubChem BioAssay AID1347423 (Functional Genomics Laboratory (NCATS/FGL), 2020).
The whole screen tested about 52,000 sequences, of which about 210 (0.4%) were called active.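 The calls were made as follows: active = gene whose silencing raises cell survival under the drug, median off-target-corrected z-score across its silencing RNAs 2 or more; inactive = the rest.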 The list shows a part of the results.

Assay: Resistance to Poly (ADP-Ribose) Polymerase inhibitor: Gene Identification via Genome-wide siRNA Screen
Conditions: mouse BRCA2 R2336H ES cells, olaparib, CellTiter-Glo viability; hits give high values
How it was run: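 Mouse BRCA2 R2336H ES cells were reverse-transfected with siRNA (20 nM final), treated at 48 h with 500 nM olaparib, and read by CellTiter-Glo after 72 h. Scores: MAD-based z per siRNA, median per gene, seed off-target correction.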

Sequence | z-score
GGUGAAACUUGCACAAUAUTT against BC027246 | inactive: 0.143
GAACUUGAUUGUCCUCCUGTT against Mc2r | inactive: 0.709
GGAAGGAACUUUUUGAGUATT against Rnf35 | inactive: -0.081
CGACUUCAUAAUUAUGCAATT against Als2 | inactive: 0.307
GCUAUAAUGCUGGAGUCAATT against Leprel1 | inactive: 0.428
GGACCGCUUCAACAGUAUGTT against Tcfl5 | inactive: 0.67
GGAGCAGAAUGAGAAGACUTT against Mir | inactive: 0.288
GCCCUUAUUAAACCAUUUGTT against Usp9x | inactive: -2.08
GGGUUCUAGUCUUCGAGACTT against Jmjd1b | inactive: -0.0867
GGUAUUCACCAUUAUGACUTT against Olfr186 | inactive: 0.778
GGGUCUCCUCUUUCCGUAATT against B930037P14Rik | inactive: -0.691
GGUGUUCAAGUACCAGUAUTT against Egln2 | inactive: -0.524
GAUGCUCGAGAAUCUACUCTT against Olfr284 | inactive: -0.352
GGAUUUCAUGUUUGAGAUCTT against Unc13b | inactive: 2.29
GCGGCUACAGAUCCUAAUGTT against Khsrp | inactive: -0.391
GCUUUGAUGUCGAUGGGCUTT against Arg1 | inactive: 0.175
GGAUCUAUUCACUUCGGAUTT against Ocil | inactive: 0.451
GGACACAGUUGAAAAGGUUTT against Kcnh1 | inactive: -0.215
CCCUGUGACCAGGAUUACATT against AW049765 | inactive: 0.983
GCAUUUUAGACUCAGAAUCTT against Car3 | inactive: 1.34
CCUCUGUUGGUCGUAAAGCTT against AK129302 | inactive: -0.393
GGUUGAAAACUAAGAACUCTT against Pglyrp2 | inactive: -0.0636
GCUGUACGUAGAUUCCAGATT against Mmp21 | inactive: -0.446

Sequence | z-score
CCAAGAAGCAUGCAUGUAUTT against 2810474O19Rik | inactive: -0.817
GGGUAAAACCAUCAAGGAGTT against D330038I09Rik | inactive: -0.735
CCUGGAUCAUAUAAUAGAGTT against Dffb | inactive: 0.34
GGUGAUUUCACUGGGUAAGTT against Olfr632 | inactive: -0.74
CCCUAUAAUUGCCUUAAUATT against ICRFP703B1614Q5.6 | inactive: -0.0759
GCACUACCACUGUCAGCAATT against Ldb3 | inactive: -0.741
GCCCUACUGUCAAAUAGGATT against Pxmp4 | inactive: 0.635
GGUUUACAACCAAAGCUUUTT against C130034I18Rik | inactive: 0.382
GGAAUUGAGUGGUUGUAUCTT against 4933427D14Rik | inactive: 0.153
GGCUCCGUGAUGCUUCAAGTT against Selenbp2 | inactive: 0.087
GGCUGAUUUUCAGCUAAACTT against A430107J06Rik | inactive: 3.07
GGCCAUGAUAUCCUCUUCUTT against Vars2 | inactive: -2.77
GGUUUGAUGUGGAAUCAUGTT against 1110006I15Rik | inactive: 0.205
GGUGAACAUUGACCACUUCTT against Rgs5 | inactive: -0.749
GGAUUUACCUUACAAAAGUTT against Fmr2 | inactive: 0.578
CCUUUUGAUAGUGAUGGUCTT against Olfr735 | inactive: 0.24
GCUUCGGCCUCAGUAUUCATT against Pigb | inactive: 1.84
GGCUUUAGUUAGAACGGGUTT against Pttg1 | inactive: 0.487
GCAUGUAGCCUGGCCUUCUTT against Zfp458 | inactive: 2.4
GGCUAACCGUAUCAGUCAUTT against 5832418A03Rik | inactive: 1.79
GCUUUAAACUGAGUGAUAATT against Zfp451 | inactive: 0.613
GGCUGUGAAGCAAAAGCAGTT against Nola2 | inactive: -0.118
CCGUAUUUAUAUUGGUUACTT against Phlda2 | inactive: 1.52

Sequence | z-score
CCUCGAAUGCAGACGUACGTT against Sdhb | inactive: 2
GGGAGGGUACAGAAAUUUATT against Spz1 | inactive: 0.488
GGUGAAGUCACUAAUCUUUTT against Prp19 | inactive: -0.966
CCUAUCCUUCUCUGACAUCTT against Olfr371 | inactive: -0.704
GGAGAAGUUUGGCAAGCCCTT against Hdgf | inactive: -0.848
GGGUGCAAGUCGUUUCUCUTT against Ugcgl1 | inactive: 1.42
GGAGAUGAAAAGAGAAAUCTT against Cct6b | inactive: -0.287
GGAGGAUCAGAGAACAGAGTT against Alms1 | inactive: 0.885
GCGAUUCAGAGACCUAUGGTT against Aven | inactive: -3.33
CCCAACAAAAUGCAUCAAUTT against Nrg3 | inactive: -0.0265
GGAGAAGCUAUGGUAUUACTT against Apc2 | inactive: -0.0862
CCUUCAGGAGAAUAAUUGUTT against Prkar2b | inactive: 0.46
CGCCUUGCUUUGUUACCAATT against MGI:2153084 | inactive: 1.93
GGUUUUAUCCCUGUUUCCUTT against Asahl | inactive: -0.631
GGCAGAUCCAAGGCUAUUATT against Olfr901 | inactive: -3.31
GGAUUUAAAAGAGGCAGAATT against 1810057E01Rik | inactive: 0.758
GCAGGACUAUGUCAACCUATT against Atp6v0d2 | inactive: 0.116
CCAAUCUCUGGCUAUAAAUTT against AJ554213 | inactive: -0.427
GGAGUACGUGAUUGCUCUGTT against Rcvrn | inactive: -0.388
GCACUCUCAGCAUUGGAUUTT against Sec22l1 | inactive: -1.44
GCUCCAGGCAUUGAGAAUGTT against Hcfc1r1 | inactive: 0.185

As entered above.
Value for GCUUUGAUGUCGAUGGGCUTT against Arg1 under z-score: inactive: 0.175
Value for CCUUUUGAUAGUGAUGGUCTT against Olfr735 under z-score: inactive: 0.24
Value for GGAUUUAAAAGAGGCAGAATT against 1810057E01Rik under z-score: inactive: 0.758
